{
  "source": "paper PMC10418980",
  "about": "“Synthesis and Evaluation of ^177Lu-DOTA-PD-L1-i and ^225Ac-HEHA-PD-L1-i as Potential Radiopharmaceuticals for Tumor Microenvironment-Targeted Radiotherapy” (International Journal of Molecular Sciences, 2023)",
  "test_system": "target organs of athymic mice with HCC827 lung micrometastases",
  "assay": "Absorbed radiation dose assessment",
  "type": "in vivo",
  "key": {"[1]": {"settings": "177Lu, integration of A(t) from t = 0 to ∞"}},
  "note": "Values joined by “and” are separate entries in the source; they are usually repeats but may differ in a detail not shown here. Equal values may be shown once.",
  "data": [
    {"smiles": "CCCC[C@H]1C(=O)N(C)[C@@H](CCCC)C(=O)N[C@@H](CCCNC(=S)Nc2ccc(C[C@H]3CN(CC(=O)O)CCN(CC(=O)O)CCN(CC(=O)O)CCN3CC(=O)O)cc2)C(=O)N[C@H](C(=O)NCC(N)=O)CSCC(=O)N[C@@H](Cc2ccc(O)cc2)C(=O)N(C)[C@@H](C)C(=O)N[C@@H](CC(N)=O)C(=O)N2CCC[C@H]2C(=O)N[C@@H](Cc2c[nH]cn2)C(=O)N[C@@H](CC(C)C)C(=O)N2C[C@H](O)C[C@H]2C(=O)N[C@@H](Cc2c[nH]c3ccccc23)C(=O)N[C@@H](CO)C(=O)N[C@@H](Cc2cn(C)c3ccccc23)C(=O)N1C", "note": "[^177Lu-DOTA-PD-L1-i, metal not drawn]", "values": [
      {"measurement": "radiation absorbed dose, kidney", "setting": "177Lu, DF values of OLINDA 2.0", "result": 4.20, "unit": "mGy/MBq"},
      {"measurement": "radiation absorbed dose, liver", "setting": "177Lu, DF values of OLINDA 2.0", "result": 0.85, "unit": "mGy/MBq"},
      {"measurement": "radiation absorbed dose, lung (HCC827 cancer cells)", "setting": "177Lu, DF values of OLINDA 2.0", "result": "43 mGy/MBq and 43.0 mGy/MBq"},
      {"measurement": "total nuclear transformations N, kidney", "setting": "[1]", "result": 10.9, "unit": "MBq·h"},
      {"measurement": "total nuclear transformations N, liver", "setting": "[1]", "result": 9.67, "unit": "MBq·h"},
      {"measurement": "total nuclear transformations N, lung (HCC827 cancer cells)", "setting": "[1]", "result": 59.3, "unit": "MBq·h"},
      {"measurement": "absorbed radiation dose to the lungs relative to the kidneys", "setting": "lung micrometastases vs kidneys", "result": "ten"}
    ]}
  ]
}
